Here are results for 31 compounds from PubChem BioAssay AID330 (DTP/NCI, 2004).

The test system of this test is P388 leukemia ip, CD2F1 mice, survival T/C. The test can be described thus: NCI In Vivo Anticancer Drug Screen. Data for tumor model P388 Leukemia (intraperitoneal) in CD2F1 (CDF1) mice. The following applies: T/C endpoint: median survival time, higher T/C = longer survival.
The mark [1] stands for this setting: dose: 100.0 mg/kg/injection, schedule: Q04DX002 (ip), vehicle: saline.
The mark [2] stands for this setting: dose: 400.0 mg/kg/injection, schedule: Q04DX002 (ip), vehicle: saline.
Setting [3] is: dose: 100.0 mg/kg/injection, schedule: Q01DX005 (ip), vehicle: saline with Tween-80.
[4] abbreviates: dose: 200.0 mg/kg/injection, schedule: Q01DX005 (ip), vehicle: saline with Tween-80.
[5] abbreviates: dose: 200.0 mg/kg/injection, schedule: Q01DX009 (ip), vehicle: suspension in saline.
Where [6] appears, read: dose: 240.0 mg/kg/injection, schedule: Q01DX005 (ip), vehicle: Klucel (hydroxypropylcellulose) (HPC).
Setting [7] is: dose: 200.0 mg/kg/injection, schedule: Q01DX009 (ip), vehicle: saline.
[8] abbreviates: dose: 240.0 mg/kg/injection, schedule: Q01DX005 (ip), vehicle: saline with Tween-80.
The mark [9] stands for this setting: dose: 50.0 mg/kg/injection, schedule: Q01DX005 (ip), vehicle: Klucel (hydroxypropylcellulose) (HPC).
[10] abbreviates: dose: 100.0 mg/kg/injection, schedule: Q01DX005 (ip), vehicle: Klucel (hydroxypropylcellulose) (HPC).
Setting [11] is: dose: 200.0 mg/kg/injection, schedule: Q04DX002 (ip), vehicle: Klucel (hydroxypropylcellulose) (HPC).
[12] abbreviates: dose: 100.0 mg/kg/injection, schedule: Q01DX009 (ip), vehicle: saline.
The mark [13] stands for this setting: dose: 100.0 mg/kg/injection, schedule: Q04DX002 (ip), vehicle: Klucel (hydroxypropylcellulose) (HPC).

The list is a part of this screen's results and no random one: it is rich in T/C values a quarter to a half above the control, in often repeated tests (any T/C) and in doses without a T/C. Further doses and runs are listed elsewhere. T/C is the treated group as % of the vehicle group. Some doses have a count of surviving animals in place of a T/C: the source holds a T/C of zero for them, seemingly a mark for toxic or unscored doses. Some doses without a T/C left all or most animals alive at the check, yet need not have been tolerated: survival well below the control is almost never listed, so the zero probably covers shortened survival too. Survivors were counted at the toxicity check, usually on the fifth day, unless a day is given; later deaths do not show. Schedule codes are those of the source, taken here to give the interval after Q, in days (D) or hours (H), and the number of doses after X. Brackets with × give the number of equal values in this list. Some entries were tested several times; the results are listed from low to high. For survival time, this PubChem deposit counts one and a half times the control or more as active, and values a quarter to a half above the control carry no call in these data; other NCI protocols may use other cut-offs. Some T/C values carry the count of animals alive at the toxicity check (mostly the fifth day); where none is given, no animal had died by that day.

In the case of `[CH2-]N(CC)CC.[CH2-]N(CC)CC.[Rh].[Rh].[Rh].[c-]1[c-][c-][cH-][c-]1.[c-]1[c-][c-][cH-][c-]1.[c-]1[c-][c-][cH-][c-]1`, the T/C (dose: 50.0 mg/kg/injection, schedule: Q04DX002 (ip), vehicle: saline) was 130 % of control; the T/C under setting [1] is 97 [5 of 6 alive] and 136 % of control. Further, the survivor count reads like this: under setting [1], 3 of 6 and 6 of 6; (dose: 200.0 mg/kg/injection, schedule: Q04DX002 (ip), vehicle: saline) 1 of 6 and 4 of 6; under setting [2], 0 of 6.
Regarding `CN(C)c1ccc2c(c1)C(=O)N(OS(C)(=O)=O)C2=O`, the survivor count under setting [3] is 6 of 6 and the survivor count under setting [4] was 0 of 6.
As to `C[C@@]12C(=O)OC(=O)[C@]1(C)[C@H]1CC[C@@H]2O1`, the survivor count was 2 of 5 (dose: 1.0 mg/kg/injection, schedule: Q01DX005 (ip), vehicle: acetone); 0 of 5 (dose: 2.0 mg/kg/injection, schedule: Q01DX005 (ip), vehicle: acetone); 0 of 5 (dose: 4.0 mg/kg/injection, schedule: Q01DX005 (ip), vehicle: acetone).
As to `N=C(N)SCc1ccc2nsnc2c1`, the survivor count by setting is: under setting [3], 2 of 6; under setting [4], 0 of 6.
Consider `O=C(NC1CC(c2ccccc2)(c2ccccc2)OC1=O)OCc1ccccc1` (stereo not drawn), for which the survivor count (dose: 100.0 mg/kg/injection, schedule: Q01DX009 (ip), vehicle: saline with Tween-80) was 6 of 6.
Regarding `Cc1nn(-c2ccccc2)nc1CBr`, under setting [4], the survivor count is given as 3 of 6.
Consider `COC(=O)c1ccc(SCC(=O)c2ccc([N+](=O)[O-])o2)cc1`, for which the survivor count under setting [5] is 5 of 6.
With `Cc1ccc2c(c1)CN(C13CC4CC(CC(C4)C1)C3)CO2`, the T/C (dose: 100.0 mg/kg/injection, schedule: Q04DX003 (ip), vehicle: saline with Tween-80) was 125 % of control.
In the case of `CCCCP(=O)(CCCC)CCCC.CCCCP(=O)(CCCC)CCCC.CCCCP(=O)(CCCC)CCCC.CCCCP(=O)(CCCC)CCCC.[Mn+2].[O-][Cl+3]([O-])([O-])O`, the T/C (dose: 200.0 mg/kg/injection, schedule: Q01DX009 (ip), vehicle: saline with Tween-80) is 125 % of control [5 of 6 alive]. The survivor count (dose: 400.0 mg/kg/injection, schedule: Q01DX009 (ip), vehicle: saline + Tween-80 + alcohol) is given as 0 of 6.
As to `COC1=CC(=O)C(CCC(C)=O)=CC1=O`, the survivor count is 0 of 6 (dose: 60.0 mg/kg/injection, schedule: Q01DX005 (ip), vehicle: Klucel (hydroxypropylcellulose) (HPC)); 0 of 6 (dose: 120.0 mg/kg/injection, schedule: Q01DX005 (ip), vehicle: Klucel (hydroxypropylcellulose) (HPC)); 0 of 6 under setting [6].
On to `CCCN(CCC)C(C)C(O)c1cc2c(c3ccccc13)CCCC2` (stereo not drawn), for which, where the note is “dose: 400.0 mg/kg/injection, schedule: Q01DX009 (ip), vehicle: Klucel (hydroxypropylcellulose) (HPC)”, the survivor count was 0 of 6.
For `COCCN=NNc1ccc(C#N)cc1`, the survivor count (dose: 200.0 mg/kg/injection, schedule: Q01DX009 (ip), vehicle: distilled water + Tween-80) is listed as 5 of 6.
Regarding `C=Cc1cc(=O)oc2cc(OC)ccc12`, the survivor count was 2 of 6 under setting [3] and 0 of 6 under setting [4].
With `CCO/C=C(\C#N)S(=O)(=O)/C(C#N)=C/OCC`, the survivor count under setting [2] is given as 0 of 6.
For `COCCOC(C)C(=O)C(O)S(=O)(=O)O` (stereo not drawn), the T/C under setting [7] is 127 % of control.
Take `CCOC(=O)c1cc(/C=C/c2ccc(Cl)cc2)on1`: under setting [8], the survivor count is recorded as 0 of 6.
As to `CCOC(=O)c1nc2nc3cc(OC)c(OC)cc3cc2c(=O)[nH]1`, the survivor count reads like this: (dose: 25.0 mg/kg/injection, schedule: Q01DX005 (ip), vehicle: Klucel (hydroxypropylcellulose) (HPC)) 6 of 6; under setting [9], 6 of 6 (2×); under setting [10], 6 of 6.
Turning to `O=c1[nH]c2cc([N+](=O)[O-])ccc2nc1/C=C(\O)c1cccc2ccccc12`, the survivor count (dose: 120.0 mg/kg/injection, schedule: Q01DX005 (ip), vehicle: Klucel + Tween-80) is reported as 6 of 6.
`CC12CC3(C)CC(C)(C1)CC(C(Cl)C(=O)O)(C2)C3` (stereo not drawn): the survivor count was 6 of 6 (dose: 100.0 mg/kg/injection, schedule: Q01DX009 (ip), vehicle: suspension in saline) and 2 of 6 under setting [5].
As for `c1ccc([Se][Se]c2ccccn2)nc1`, the survivor count runs as follows: under setting [9], 3 of 6; under setting [10], 0 of 6; (dose: 200.0 mg/kg/injection, schedule: Q01DX005 (ip), vehicle: Klucel (hydroxypropylcellulose) (HPC)) 0 of 6.
Consider `O=c1[nH]c2ccccc2cc1CBr`, for which the survivor count under setting [11] is 2 of 6 and 5 of 6.
`COc1ccc2cc1Oc1cc3c(cc1OC)CC[N+](C)(C)C3Cc1ccc(cc1)Oc1c(OC)c(OC)cc3c1C(C2)[N+](C)(C)CC3` (stereo not drawn): the survivor count (dose: 0.62 mg/kg/injection, schedule: Q01DX009 (ip), vehicle: saline) is 2 of 6; the survivor count (dose: 1.25 mg/kg/injection, schedule: Q01DX009 (ip), vehicle: saline) was 0 of 6; the survivor count (dose: 2.5 mg/kg/injection, schedule: Q01DX009 (ip), vehicle: saline) is 0 of 6; the survivor count (dose: 5.0 mg/kg/injection, schedule: Q01DX009 (ip), vehicle: saline) was 0 of 6; the survivor count (dose: 10.0 mg/kg/injection, schedule: Q01DX009 (ip), vehicle: saline) is on record as 0 of 6; the survivor count (dose: 20.0 mg/kg/injection, schedule: Q01DX009 (ip), vehicle: saline) is on record as 0 of 6.
For `CC[N+]1(C)CCCCC1`, the survivor count by setting is: under setting [12], 0 of 6; under setting [7], 0 of 6.
Regarding `O=[N+]([O-])c1cccn2nc(COCCO)nc12`, under “dose: 50.0 mg/kg/injection, schedule: Q01DX005 (ip), vehicle: saline”, the survivor count is 5 of 5.
Regarding `NC(=O)c1ccc2c(=O)c(C(=O)O)c[nH]c2c1`, the survivor count is reported as 6 of 6 (dose: 50.0 mg/kg/injection, schedule: Q01DX009 (ip), vehicle: saline); 0 of 6 under setting [12]; 0 of 6 under setting [7].
Turning to `O=C1C=CC(O)C2C1CC13SSC4(CC5C(=O)C=CC(O)C5N4C1=O)C(=O)N23` (stereo not drawn), the survivor count was 2 of 6 (dose: 16.0 mg/kg/injection, schedule: Q01DX009 (ip), vehicle: Klucel (hydroxypropylcellulose) (HPC)) and 0 of 6 (dose: 32.0 mg/kg/injection, schedule: Q01DX009 (ip), vehicle: Klucel (hydroxypropylcellulose) (HPC)).
Turning to `c1ccc2c(c1)CCC1=C2S/C(=C2/SC3=C(S2)c2ccccc2CC3)S1`, the survivor count runs as follows: (dose: 60.0 mg/kg/injection, schedule: Q01DX005 (ip), vehicle: saline with Tween-80) 6 of 6; (dose: 120.0 mg/kg/injection, schedule: Q01DX005 (ip), vehicle: saline with Tween-80) 6 of 6; under setting [8], 6 of 6.
With `CC(=O)[O-].CC(=O)[O-].CC(=O)[O-].CC(=O)[O-].Cn1c(=O)c2[nH]cnc2n(C)c1=O.Cn1c(=O)c2[nH]cnc2n(C)c1=O.[Rh+2].[Rh+2]`, the T/C runs as follows: (dose: 25.0 mg/kg/injection, schedule: Q04DX002 (ip), vehicle: Klucel (hydroxypropylcellulose) (HPC)) 128 % of control; under setting [13], 130 % of control. The survivor count under setting [13] is 3 of 6; the survivor count under setting [11] was 0 of 6; the survivor count (dose: 400.0 mg/kg/injection, schedule: Q04DX002 (ip), vehicle: Klucel (hydroxypropylcellulose) (HPC)) is 0 of 6.
Turning to `CCOC(=O)C1=C(C(=O)c2ccc(OC)cc2)C(c2ccc(OC)c(OC)c2)C(C(=O)c2ccc(OC)cc2)=C(C(=O)OCC)N1`, the survivor count under setting [8] is recorded as 5 of 6.
Still for that read-out and setting: to `CCCCCCCCN1CCOCCOCCN(CCCCCCCC)c2nc(Cl)nc(n2)NCCOCCOCCNc2nc(Cl)nc1n2` belongs 6 of 6.
Turning to `CN(C)CCSC1=Nc2ccc(Cl)cc2C(c2ccccc2Cl)N(C)C1` (stereo not drawn), the survivor count under setting [6] was 2 of 6.
